Assay results as given in PubChem BioAssay AID330 (DTP/NCI, 2004).
The list shows only some results of the screen, not a fair sample: it is rich in T/C values a quarter to a half above the control, in often repeated tests (any T/C) and in doses without a T/C. Further doses and runs are listed elsewhere. T/C gives the treated animals as a percentage of the vehicle group. Some entries give survivors of the animals treated and no T/C: the source holds a T/C of zero for them, seemingly a mark for toxic or unscored doses. Some doses without a T/C left all or most animals alive at the check, yet need not have been tolerated: the source hardly ever lists a survival T/C far under the control, and the zero likely stands for such cases as well. Counts of survivors are from the toxicity check (mostly the fifth day) where no day follows; animals may have died later. Schedules are NCI's codes, read here as Q, the interval in days (D) or hours (H), X, the number of doses. Some entries hold several experiments; the values are given in rising order. Some molecules as drawn cover several salts, stereoisomers or complexes of the source; a dose is that of the sample tested. For survival time, the PubChem record calls one and a half times the control and up active, and a quarter to a half above the control has no call in these data; cut-offs in other NCI protocols can differ.

System: P388 leukemia ip, CD2F1 mice, survival T/C
Experiment: NCI In Vivo Anticancer Drug Screen. Data for tumor model P388 Leukemia (intraperitoneal) in CD2F1 (CDF1) mice
Conditions: T/C endpoint: median survival time, higher T/C = longer survival
[1] = dose: 100.0 mg/kg/injection, schedule: Q01DX005 (ip), vehicle: saline
[2] = dose: 200.0 mg/kg/injection, schedule: Q01DX005 (ip), vehicle: saline

## O=C1C=CC2(C=C1)CCCCC2
dose: 200.0 mg/kg/injection, schedule: Q01DX001 (ip), vehicle: Klucel (hydroxypropylcellulose) (HPC)
  survivor count: 3 of 6

## C/C(=N/N=C(N)N)c1cnn(C(=N)N)c1C
dose: 240.0 mg/kg/injection, schedule: Q01DX005 (ip), vehicle: Klucel (hydroxypropylcellulose) (HPC)
  survivor count: 3 of 6

## O=C(N/N=C/c1ccccc1O)C(F)(F)F
dose: 200.0 mg/kg/injection, schedule: Q01DX009 (ip), vehicle: saline with Tween-80
  survivor count: 6 of 6

## CC(C)(C)C1C=Nn2c(=O)n(-c3ccccc3)c(=O)n21 (configuration not stated)
dose: 50.0 mg/kg/injection, schedule: Q04DX003 (ip), vehicle: other
  survivor count: 4 of 4

## O=c1cccc[nH]1
dose: 400.0 mg/kg/injection, schedule: Q01DX009 (ip), vehicle: saline
  T/C: 136 % of control
dose: 600.0 mg/kg/injection, schedule: Q01DX009 (ip), vehicle: saline
  survivor count: 3 of 6
dose: 800.0 mg/kg/injection, schedule: Q01DX009 (ip), vehicle: saline
  survivor count: 0 of 6 and 2 of 6

## Cc1ccnc(NS(=O)(=O)c2ccc(Nc3c4ccccc4nc4cc(Cl)ccc34)cc2)n1
dose: 400.0 mg/kg/injection, schedule: Q04DX003 (ip), vehicle: Klucel (hydroxypropylcellulose) (HPC)
  T/C: 131 % of control

## FC(F)(F)c1ccc(Cl)c(N=Cc2ccc(C=Nc3cc(C(F)(F)F)ccc3Cl)cc2)c1
dose: 200.0 mg/kg/injection, schedule: Q01DX009 (ip), vehicle: Klucel (hydroxypropylcellulose) (HPC)
  survivor count: 3 of 6

## CC(CNc1nc(Nc2ccc(Cl)c(Cl)c2)nc(C(Cl)(Cl)Cl)n1)N(C)C (configuration not stated)
dose: 100.0 mg/kg/injection, schedule: Q01DX009 (ip), vehicle: distilled water + Tween-80
  survivor count: 5 of 6
dose: 200.0 mg/kg/injection, schedule: Q01DX009 (ip), vehicle: distilled water + Tween-80
  survivor count: 2 of 6

## O=C(O)CSCSCC(=O)O
dose: 400.0 mg/kg/injection, schedule: Q04DX003 (ip), vehicle: saline
  survivor count: 0 of 6

## CN1C(c2ccncc2)=NCC12CCCCC2
dose: 50.0 mg/kg/injection, schedule: Q01DX005 (ip), vehicle: saline
  survivor count: 0 of 6
dose: 50.0 mg/kg/injection, schedule: Q04DX002 (ip), vehicle: saline
  survivor count: 3 of 6
[1]
  survivor count: 0 of 6
dose: 100.0 mg/kg/injection, schedule: Q04DX002 (ip), vehicle: saline
  survivor count: 0 of 6
[2]
  survivor count: 0 of 6
dose: 200.0 mg/kg/injection, schedule: Q04DX002 (ip), vehicle: saline
  survivor count: 0 of 6
dose: 400.0 mg/kg/injection, schedule: Q04DX002 (ip), vehicle: saline
  survivor count: 0 of 6

## CCN(CC)CCOCCCNc1ccnc2cc(Cl)ccc12
[2]
  survivor count: 0 of 6

## CN(CCN1C(=O)c2cccc3cccc(c23)C1=O)CCN1C(=O)c2cccc3cccc(c23)C1=O
dose: 120.0 mg/kg/injection, schedule: Q01DX005 (ip), vehicle: saline with Tween-80
  survivor count: 6 of 6

## OC(CN1CCCCC1)c1ccc(/C=C/c2ccc(Cl)cc2)cc1 (configuration not stated)
dose: 50.0 mg/kg/injection, schedule: Q01DX009 (ip), vehicle: saline
  survivor count: 6 of 6

## CCC1C2Cc3ccc(O)cc3C1(CC)CCN2C (configuration not stated)
dose: 100.0 mg/kg/injection, schedule: Q01DX005 (ip), vehicle: saline with Tween-80
  survivor count: 0 of 6
dose: 200.0 mg/kg/injection, schedule: Q01DX005 (ip), vehicle: Klucel (hydroxypropylcellulose) (HPC)
  survivor count: 2 of 6
dose: 200.0 mg/kg/injection, schedule: Q01DX005 (ip), vehicle: saline with Tween-80
  survivor count: 0 of 6

## CC(=C/c1cc(C)cc(=O)o1)/C=C/c1ccc(C)c(C)c1C
dose: 100.0 mg/kg/injection, schedule: Q01DX005 (ip), vehicle: Klucel (hydroxypropylcellulose) (HPC)
  survivor count: 5 of 6

## COc1cccc2c1C(=O)c1c(O)c3c(c(O)c1C2=O)CC(O)(C(C)=O)CC3OC1CC(NCC2(O)OCC(O)C(OC3OC(CO)C(O)C(O)C3O)C2O)C(O)C(C)O1 (configuration not stated)
dose: 12.5 mg/kg/injection, schedule: Q04DX003 (ip), vehicle: water
  T/C: 128 % of control

## CCN(CC)[P+](C1=C(Cl)C(=O)C(C#N)=C(C#N)C1=O)(N(CC)CC)N(CC)CC
dose: 12.5 mg/kg/injection, schedule: Q01DX009 (ip), vehicle: saline with Tween-80
  survivor count: 6 of 6

## CC(C)(C)c1cc(C[N+](C)(C)C)c(O)c(C(C)(C)C)c1
dose: 100.0 mg/kg/injection, schedule: Q01DX005 (ip), vehicle: distilled water + alcohol
  survivor count: 0 of 5
dose: 200.0 mg/kg/injection, schedule: Q01DX005 (ip), vehicle: distilled water + alcohol
  survivor count: 0 of 5

## CC(C)CC(C)NC(C)CC(C)C (configuration not stated)
[1]
  survivor count: 0 of 6
[2]
  survivor count: 0 of 6
